# Reference: PubChem BioAssay AID743121 (NCATS, 2013)
# Aim: 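Partners whose loss is lethal together with topoisomerase I blockade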 (primary screen)
# Cell system: MDA-MB-231 cells, a human breast cancer line
# Reagents: single siRNA against human genes, 20 nM siRNA (0.8 pmol per well)
# Time to read-out: 120 h (drug added 48 h after transfection, read 72 h later)
# Conditions: camptothecin 20 nM (about EC30) for 72 h; vehicle 0.1% DMSO in parallel plates
# Read-out: 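Cell viability by ATP luminescence (CellTiter-Glo) as % of non-targeting siRNA wells, and the log2 ratio of viability without drug over viability with camptothecin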
# Reading the numbers: log2 vehicle/camptothecin viability: higher = stronger sensitisation to camptothecin; viability with camptothecin: higher = more viable cells
# Rule for the call: 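Active genes have an RSA gene-level p-value below 0.001, computed from the ratios of their separate siRNAs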
# The whole screen tested about 26,000 reagents; this is a random part of them. 167 of all reagents (0.63%) were called active. 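Calls are per gene from RSA p-values that are not deposited; an individual active-marked siRNA can sensitise only weakly.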 Not all columns of the deposit are shown.
gene symbol,PubChem SID,log2 vehicle/camptothecin viability,viability with camptothecin (% of control),call
USP44 (GeneID 84101),SID164543050,-0.0859,94.4,inactive
USP44 (GeneID 84101),SID164543053,-0.285,81.1,inactive
USP44 (GeneID 84101),SID164543054,-0.343,63.5,inactive
USP44 (GeneID 84101),SID164543056,-0.808,69.1,inactive
NPEPPS (GeneID 9520),SID164404290,0.257,58.8,inactive
NPEPPS (GeneID 9520),SID164404291,-0.0729,72.7,inactive
NPEPPS (GeneID 9520),SID164404292,0.176,61.6,inactive
NPEPPS (GeneID 9520),SID164404294,0.136,87.4,inactive
KIF27 (GeneID 55582),SID164485262,-0.125,72.9,inactive
KIF27 (GeneID 55582),SID164485264,-0.355,96.2,inactive
KIF27 (GeneID 55582),SID164485265,-0.189,80.3,inactive
KIF27 (GeneID 55582),SID164485268,-0.449,54.8,inactive
RAD1 (GeneID 5810),SID164384101,-0.132,87.6,inactive
RAD1 (GeneID 5810),SID164384102,0.18,71.3,inactive
RAD1 (GeneID 5810),SID164384103,-0.155,43.5,inactive
RAD1 (GeneID 5810),SID164384108,-0.198,72.2,inactive
NPY1R (GeneID 4886),SID164378412,-0.19,104,inactive
NPY1R (GeneID 4886),SID164378413,0.538,55.6,inactive
NPY1R (GeneID 4886),SID164378414,0.0508,70.2,inactive
NPY1R (GeneID 4886),SID164378415,-0.532,102,inactive
IRF9 (GeneID 10379),SID164410577,0.0236,96.5,inactive
IRF9 (GeneID 10379),SID164410578,-0.242,116,inactive
IRF9 (GeneID 10379),SID164410579,-0.0583,101,inactive
IRF9 (GeneID 10379),SID164410580,-0.22,89.5,inactive
APOL2 (GeneID 23780),SID164449667,-0.314,67.8,inactive
APOL2 (GeneID 23780),SID164449669,-0.121,79.7,inactive
APOL2 (GeneID 23780),SID164449670,0.122,60.7,inactive
APOL2 (GeneID 23780),SID164449671,0.064,105,inactive

Single entries from the entries so far.
Under “call”, IRF9 (GeneID 10379) [SID164410578] has inactive
Entry of IRF9 (GeneID 10379) [SID164410580] in “log2 vehicle/camptothecin viability”: -0.22
